In paper PMC1964775:
No constants are given. Whether binding was seen depends on the method and setting. In cells and extracts the contact can be indirect. Some entries that bind do so weakly or less than the wild type.

Amino acid sequences for entries named in this document (tags omitted).
UniProt Q94517: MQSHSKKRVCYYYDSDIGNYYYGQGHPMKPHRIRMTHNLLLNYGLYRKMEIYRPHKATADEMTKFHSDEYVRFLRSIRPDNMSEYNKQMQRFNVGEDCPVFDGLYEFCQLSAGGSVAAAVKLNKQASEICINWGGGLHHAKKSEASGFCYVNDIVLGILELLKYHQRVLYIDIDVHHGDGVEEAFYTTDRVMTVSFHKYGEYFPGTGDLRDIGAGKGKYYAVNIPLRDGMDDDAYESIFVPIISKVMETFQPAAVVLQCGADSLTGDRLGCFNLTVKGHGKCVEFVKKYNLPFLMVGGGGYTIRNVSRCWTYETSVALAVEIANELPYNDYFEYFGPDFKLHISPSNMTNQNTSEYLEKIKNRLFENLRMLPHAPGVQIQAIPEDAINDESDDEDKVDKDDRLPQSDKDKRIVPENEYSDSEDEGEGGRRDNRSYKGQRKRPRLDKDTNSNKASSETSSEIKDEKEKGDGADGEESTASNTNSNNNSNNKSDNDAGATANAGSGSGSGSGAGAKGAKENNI

T1: Dsp1 (dorsal switch protein) (Drosophila (endogenous in SL2 cells)) (UniProt Q24537)
T1 sequence: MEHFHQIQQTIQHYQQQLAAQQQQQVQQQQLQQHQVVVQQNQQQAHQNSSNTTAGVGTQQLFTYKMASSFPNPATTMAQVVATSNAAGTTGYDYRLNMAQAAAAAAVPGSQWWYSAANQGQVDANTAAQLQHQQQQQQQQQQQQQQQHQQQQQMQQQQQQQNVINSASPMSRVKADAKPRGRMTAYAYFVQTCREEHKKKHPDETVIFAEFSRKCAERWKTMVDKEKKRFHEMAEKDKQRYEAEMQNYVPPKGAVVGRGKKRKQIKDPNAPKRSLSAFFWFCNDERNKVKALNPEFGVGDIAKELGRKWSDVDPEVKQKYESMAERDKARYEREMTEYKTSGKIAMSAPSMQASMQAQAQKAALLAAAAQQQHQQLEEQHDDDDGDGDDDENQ

T2: Jra (Drosophila (endogenous in SL2 cells)) (UniProt P18289)
T2 sequence: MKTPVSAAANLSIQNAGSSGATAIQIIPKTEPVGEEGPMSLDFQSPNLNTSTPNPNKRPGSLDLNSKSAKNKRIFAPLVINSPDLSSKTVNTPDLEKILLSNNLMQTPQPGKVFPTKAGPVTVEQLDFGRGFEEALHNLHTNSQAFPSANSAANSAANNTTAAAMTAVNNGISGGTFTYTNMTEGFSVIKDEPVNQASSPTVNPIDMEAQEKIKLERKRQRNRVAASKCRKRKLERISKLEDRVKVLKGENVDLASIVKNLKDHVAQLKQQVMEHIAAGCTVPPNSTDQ

T3: Stat92E (Drosophila (endogenous in SL2 cells)) (UniProt Q24151)
T3 sequence: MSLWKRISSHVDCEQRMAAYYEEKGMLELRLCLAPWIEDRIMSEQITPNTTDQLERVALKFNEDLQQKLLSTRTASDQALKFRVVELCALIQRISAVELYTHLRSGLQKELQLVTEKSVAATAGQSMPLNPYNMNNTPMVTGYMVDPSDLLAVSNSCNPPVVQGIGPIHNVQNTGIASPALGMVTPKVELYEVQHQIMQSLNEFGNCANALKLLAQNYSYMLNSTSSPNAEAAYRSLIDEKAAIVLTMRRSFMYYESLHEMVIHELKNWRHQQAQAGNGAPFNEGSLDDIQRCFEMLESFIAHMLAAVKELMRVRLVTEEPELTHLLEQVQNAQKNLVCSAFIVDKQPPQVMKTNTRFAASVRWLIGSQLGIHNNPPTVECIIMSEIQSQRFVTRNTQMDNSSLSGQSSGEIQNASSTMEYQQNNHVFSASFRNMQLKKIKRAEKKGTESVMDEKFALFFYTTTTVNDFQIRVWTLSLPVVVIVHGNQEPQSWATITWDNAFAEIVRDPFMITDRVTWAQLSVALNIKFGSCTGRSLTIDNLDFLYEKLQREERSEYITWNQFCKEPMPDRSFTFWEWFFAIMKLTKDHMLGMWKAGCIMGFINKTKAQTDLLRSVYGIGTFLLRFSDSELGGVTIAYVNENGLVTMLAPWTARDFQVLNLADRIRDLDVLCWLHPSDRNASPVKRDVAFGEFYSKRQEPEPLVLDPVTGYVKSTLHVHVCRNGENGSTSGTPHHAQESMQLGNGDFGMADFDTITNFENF


Assays:
[1] = molecular target: T1, Dsp1 (dorsal switch protein) (Drosophila (endogenous in SL2 cells)); experiment: co-IP; nuclear extracts of SL2 cells treated with LPS/PGN (10 μg/ml for 45 min); 5 μg antibody against endogenous protein, Protein G beads, 4 °C for 1 h; immunoblot of the pellets
[2] = molecular target: T2, Jra (Drosophila (endogenous in SL2 cells)); experiment: as above
[3] = molecular target: T3, Stat92E (Drosophila (endogenous in SL2 cells)); experiment: as above
[4] = molecular target: T1, Dsp1 (dorsal switch protein) (Drosophila (endogenous in SL2 cells)); experiment: co-IP; as the co-IP from LPS/PGN-treated SL2 nuclear extracts, with a high concentration of ethidium bromide added to the extracts; unpublished data
[5] = molecular target: T2, Jra (Drosophila (endogenous in SL2 cells)); experiment: as above
[6] = molecular target: T3, Stat92E (Drosophila (endogenous in SL2 cells)); experiment: as above
[7] = molecular target: T2, Jra (Drosophila (endogenous in SL2 cells)); experiment: co-IP; nuclear extracts of SL2 cells without LPS/PGN treatment; antibody against endogenous protein, Protein G beads; immunoblot of the pellets
[8] = molecular target: T3, Stat92E (Drosophila (endogenous in SL2 cells)); experiment: as above

Molecule	binding [1]	binding [2]	binding [3]	binding [4]	binding [5]	binding [6]	binding [7]	binding [8]
Jra (protein, UniProt P18289 1-289) MKTPVSAAANLSIQNAGSSGATAIQIIPKTEPVGEEGPMSLDFQSPNLNTSTPNPNKRPGSLDLNSKSAKNKRIFAPLVINSPDLSSKTVNTPDLEKILLSNNLMQTPQPGKVFPTKAGPVTVEQLDFGRGFEEALHNLHTNSQAFPSANSAANSAANNTTAAAMTAVNNGISGGTFTYTNMTEGFSVIKDEPVNQASSPTVNPIDMEAQEKIKLERKRQRNRVAASKCRKRKLERISKLEDRVKVLKGENVDLASIVKNLKDHVAQLKQQVMEHIAAGCTVPPNSTDQ	binds		binds					
Dsp1 (dorsal switch protein) (protein, UniProt Q24537 1-393) MEHFHQIQQTIQHYQQQLAAQQQQQVQQQQLQQHQVVVQQNQQQAHQNSSNTTAGVGTQQLFTYKMASSFPNPATTMAQVVATSNAAGTTGYDYRLNMAQAAAAAAVPGSQWWYSAANQGQVDANTAAQLQHQQQQQQQQQQQQQQQHQQQQQMQQQQQQQNVINSASPMSRVKADAKPRGRMTAYAYFVQTCREEHKKKHPDETVIFAEFSRKCAERWKTMVDKEKKRFHEMAEKDKQRYEAEMQNYVPPKGAVVGRGKKRKQIKDPNAPKRSLSAFFWFCNDERNKVKALNPEFGVGDIAKELGRKWSDVDPEVKQKYESMAERDKARYEREMTEYKTSGKIAMSAPSMQASMQAQAQKAALLAAAAQQQHQQLEEQHDDDDGDGDDDENQ		binds	binds		binds	binds	binds weakly	binds weakly

Now from value to molecule:

binding [1]	binding [2]	binding [3]	binding [4]	binding [5]	binding [6]	binding [7]	binding [8]	Molecule
binds	binds	binds	binds	binds	binds			dHDAC1 (from UniProt Q94517 1-521) (enzyme)
binds	binds			binds		binds weakly		Stat92E (protein, UniProt Q24151 1-761) MSLWKRISSHVDCEQRMAAYYEEKGMLELRLCLAPWIEDRIMSEQITPNTTDQLERVALKFNEDLQQKLLSTRTASDQALKFRVVELCALIQRISAVELYTHLRSGLQKELQLVTEKSVAATAGQSMPLNPYNMNNTPMVTGYMVDPSDLLAVSNSCNPPVVQGIGPIHNVQNTGIASPALGMVTPKVELYEVQHQIMQSLNEFGNCANALKLLAQNYSYMLNSTSSPNAEAAYRSLIDEKAAIVLTMRRSFMYYESLHEMVIHELKNWRHQQAQAGNGAPFNEGSLDDIQRCFEMLESFIAHMLAAVKELMRVRLVTEEPELTHLLEQVQNAQKNLVCSAFIVDKQPPQVMKTNTRFAASVRWLIGSQLGIHNNPPTVECIIMSEIQSQRFVTRNTQMDNSSLSGQSSGEIQNASSTMEYQQNNHVFSASFRNMQLKKIKRAEKKGTESVMDEKFALFFYTTTTVNDFQIRVWTLSLPVVVIVHGNQEPQSWATITWDNAFAEIVRDPFMITDRVTWAQLSVALNIKFGSCTGRSLTIDNLDFLYEKLQREERSEYITWNQFCKEPMPDRSFTFWEWFFAIMKLTKDHMLGMWKAGCIMGFINKTKAQTDLLRSVYGIGTFLLRFSDSELGGVTIAYVNENGLVTMLAPWTARDFQVLNLADRIRDLDVLCWLHPSDRNASPVKRDVAFGEFYSKRQEPEPLVLDPVTGYVKSTLHVHVCRNGENGSTSGTPHHAQESMQLGNGDFGMADFDTITNFENF
